Results are given in words; binding and its absence hold for the method and conditions named. Binding seen in cells or lysates may run through a third protein. Some entries that bind do so weakly or less than the wild type. Sequences can lack the tags named with a protein.

The experiment concerns the target T1, GST-GLUT2 fusion protein (UniProt P14246).
T1 sequence: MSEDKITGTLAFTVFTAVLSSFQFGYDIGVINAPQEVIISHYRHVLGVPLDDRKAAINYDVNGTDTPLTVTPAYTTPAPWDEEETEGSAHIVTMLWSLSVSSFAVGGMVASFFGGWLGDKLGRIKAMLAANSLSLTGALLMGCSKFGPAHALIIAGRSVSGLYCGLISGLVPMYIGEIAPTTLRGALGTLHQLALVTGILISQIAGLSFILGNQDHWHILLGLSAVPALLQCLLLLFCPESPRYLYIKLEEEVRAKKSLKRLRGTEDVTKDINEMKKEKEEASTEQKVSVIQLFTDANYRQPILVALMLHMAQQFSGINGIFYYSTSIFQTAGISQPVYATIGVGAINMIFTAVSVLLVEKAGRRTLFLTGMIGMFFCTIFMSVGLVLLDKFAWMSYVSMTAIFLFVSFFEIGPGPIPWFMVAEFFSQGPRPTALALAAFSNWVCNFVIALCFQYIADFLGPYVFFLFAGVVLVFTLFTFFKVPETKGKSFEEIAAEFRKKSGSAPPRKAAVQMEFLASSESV
The experiment is described as follows: pull-down; GST pull-down on glutathione-agarose beads; fusion proteins made in E. coli; incubation at 4 °C for 60 min with gentle shaking, 3 washes; detection by chemiluminescence blot.

B1: Myc-GnT-IVa fusion protein (GlcNAcT-IVa glycosyltransferase) (enzyme, UniProt Q812G0 1-535)
chain: MRLRNGTVATALVFVTSFLTLSWYTTWQNGKEKLIAYQREFLALKERLRVAEHRISQRSSELNTIVQQFRRAGAETNGSKTALSTISDNTIKLLKELTSKKSLRVPSIYYHLPHLLQNERSLQPAVQIGSGRTGVSIVMGIPTVKREVKSYLVETLHSLIDNLYPEEKLDCVIVVFIGETDLDYVHSVVANLEKEFSREISSGLLEIISPPESYYPDLTNLKETFGDSKERVRWRTKQNLDYCFLMMYAQEKGIYYIQLEDDIIVKQNYFNTIKNFALQLSSEEWMILEFSQLGFIGKMFQAPDLALVVEFILMFYKEKPIDWLLDHILWVKVCNPEKDAKHCDRQKANLRIRFRPSLFQHVGLHSSLSGKIQKLTDKDYMKPLLLKVHVNPPAEVSTSLKVYQGHTLEKTYMGEDFFWAITPTAGDYILFKFDKPVNVESYLFHSGNQEHPGDILLNTTVDVLPLKSDSLEISKETKDKRLEDGYFRIGKFEYGVAEGIVDPGLNPISAFRLSVIQNSAVWAILNEIHIKKVTS
As to B1, the binding entry is “binds”.

These data come from paper PMC11076383.
